Record: PubChem BioAssay AID1224828 (NIAID, 2016)
Screen: 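Knock-downs that increase or decrease LPS-induced p65 nuclear translocation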 (primary screen). System: mouse RAW264.7 G9 macrophage reporter cells (GFP-p65, Tnf promoter-mCherry). Reagents: siRNA pool against mouse genes, 100 nM. Duration: 2 days siRNA transfection, then 40 min LPS before fixation. Conditions: LPS (Salmonella minnesota R595) at 10 ng/ml. Read-out: 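Imaged p65 nuclear translocation ratio, normalised to the plate median, converted to robust z-scores and averaged across two replicates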. Direction: p65 translocation robust z-score: higher = more nuclear NF-kappaB p65 after LPS than the plate median; nuclear/cytoplasmic p65 ratio: higher = more nuclear NF-kappaB p65. Rule for the call: 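Active if robust z is above 3.3 (negative regulators) or below -1.56, the Tlr4 control median (positive regulators); activity score 50 or more; control wells not called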. Calls: active = hit (p65 shift raised or lowered); inactive = no clear change.
Shown is a random part of about 17,000 reagents. 762 of them (4.5%) count as active. 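Active calls include both raised and lowered p65 entry, mostly lowered; wells with fewer than 50 cells lack a z-score.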 The raw values are shown without normalisation. Unmarked entries are inactive.

| target | p65 translocation robust z-score | nuclear/cytoplasmic p65 ratio, rep 1 | nuclear/cytoplasmic p65 ratio, rep 2 | low cell count flag |
| --- | --- | --- | --- | --- |
| Spint1 | -0.73 | 1.29 | 1.17 | enough cells to score |
| Bpgm | -0.44 | 1.55 | 1.54 | enough cells to score |
| Rcn1 | 0.1 | 1.43 | 1.23 | enough cells to score |
| Otulinl | 1.64 | 1.73 | 1.68 | enough cells to score |
| Klhl15 | 0.5 | 1.54 | 1.57 | enough cells to score |
| Pcdhgb1 | -0.08 | 1.43 | 1.14 | enough cells to score |
| Mrps18a | -2.54 (active) | 1.48 | 1.11 | enough cells to score |
| Cort | -0.05 | 1.58 | 1.77 | enough cells to score |
| Tdrd1 | -0.35 | 1.29 | 1.18 | enough cells to score |
| Smndc1 | – | 1.28 | 1.18 | fewer than 50 cells per well; well left out of scoring |
| Map2k4 | 3.55 (active) | 2.06 | 1.82 | enough cells to score |
| Rps15 | 0.09 | 1.32 | 1.23 | enough cells to score |
| Gldn | 1.14 | 1.7 | 2.01 | enough cells to score |
| Or8k33 | -0.97 | 1.44 | 1.5 | enough cells to score |
| Lcorl | 2.04 | 2.13 | 1.89 | enough cells to score |
| Ncbp2 | -1.5 | 1.47 | 1.43 | enough cells to score |
| Prss8 | – | 1.26 | 1.23 | fewer than 50 cells per well; well left out of scoring |
| AB124611 | -1.41 | 1.37 | 1.49 | enough cells to score |
| Cnot11 | 1.13 | 1.53 | 1.91 | enough cells to score |
| Pum2 | -0.18 | 1.38 | 1.17 | enough cells to score |
| Cep89 | -0.86 | 1.27 | 1.36 | enough cells to score |
| Nlrx1 | 0.29 | 1.66 | 1.85 | enough cells to score |
| Adam25 | -1.02 | 1.38 | 1.6 | enough cells to score |
| Khnyn | 1.17 | 1.57 | 1.72 | enough cells to score |
| Papss2 | -0.31 | 1.51 | 1.34 | enough cells to score |
| Tmem47 | -1.43 | 1.18 | 1.1 | enough cells to score |
| Cdc37l1 | 0.23 | 1.56 | 1.35 | enough cells to score |
| Zdhhc6 | – | 1.36 | 1.24 | fewer than 50 cells per well; well left out of scoring |
| Tle6 | 0.73 | 1.4 | 1.32 | enough cells to score |
| Ceacam9 | 0.43 | 1.65 | 1.86 | enough cells to score |
| Mettl2 | 1.75 | 2.03 | 1.77 | enough cells to score |
| Sult2a2 | 2.06 | 1.7 | 2 | enough cells to score |
| Sptlc3 | 1.31 | 1.57 | 1.75 | enough cells to score |
| Cntfr | 0.7 | 1.47 | 1.55 | enough cells to score |
| Hoxc12 | 1.82 | 1.92 | 1.81 | enough cells to score |
| Insl3 | 0.16 | 1.47 | 1.43 | enough cells to score |
| Klhl12 | -0.05 | 1.54 | 1.35 | enough cells to score |
| E230001N04Rik | 0.17 | 1.5 | 1.37 | enough cells to score |
| Gstp2 | -0.09 | 1.43 | 1.35 | enough cells to score |
| St6gal2 | 1.58 | 1.62 | 1.42 | enough cells to score |

Single entries from the list:
For “nuclear/cytoplasmic p65 ratio, rep 2”, Pcdhgb1 reads 1.14
Result for Or8k33 in “p65 translocation robust z-score”: -0.97
Under “low cell count flag”, Gldn reads enough cells to score
For “p65 translocation robust z-score”, Tmem47 shows -1.43
Value of Mrps18a under “low cell count flag”: enough cells to score (active)
